Record: PubChem BioAssay AID1259308 (NCATS, 2017)
Aim: 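Candidate targets for better recombinant protein yield in mammalian cells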 (primary screen). Cells: human HEK293 embryonic kidney cells stably expressing firefly luciferase (HEK-CMV-Luc2-Hygro). Reagent: single siRNA against human genes, 0.8 pmol siRNA per well. Timing: 72 h. Measurement: 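Luciferase light (ONE-Glo) measured on one replicate plate set and viability (CellTiter-Glo) on the other, scaled to a negative control siRNA, with robust z-scores and luciferase per cell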. Scale: total luciferase, z-score and total luciferase, % of control: higher = more reporter protein produced; luciferase per cell, z-score: higher = more reporter output per viable cell; viable cells, % of control: higher = more viable cells. Hit rule: 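Active when the median/MAD z-score for overall luciferase is greater than 3; a gene was taken forward for validation with new siRNAs if at least two of its three siRNAs passed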. Calls: active = raised luciferase; inactive = no rise.
The deposit covers about 59,000 reagents; this is a random part of them. Of all reagents, about 1,510 (2.6%) were called active. 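Calls use total luciferase alone and ignore viability, so some active siRNAs may act by altering cell number.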 The numbers tell different reagents against one gene apart. Reagent sequences are not shown.

no.	gene symbol	siRNA no.	total luciferase, z-score	total luciferase, % of control	luciferase per cell, z-score	viable cells, % of control	Call
1	MYL6P5	1	-1.15	59	-0.752	80.4	inactive
2	MYL6P5	2	-0.751	67	-0.195	78.8	inactive
3	MYL6P5	3	0.527	92.4	0.341	94.3	inactive
4	GNPDA2	1	-1.6	50.1	-1.61	85.6	inactive
5	GNPDA2	2	-0.76	66.8	-0.57	86.7	inactive
6	GNPDA2	3	0.0517	82.9	-0.497	106	inactive
7	SLC33A1	1	0.528	92.4	0.185	98.3	inactive
8	SLC33A1	2	-0.372	74.5	-0.27	89.4	inactive
9	SLC33A1	3	-1.06	60.8	-1.05	89.7	inactive
10	CCDC178	1	-0.0149	81.6	0.551	78.9	inactive
11	CCDC178	2	-0.523	71.5	-0.633	94.4	inactive
12	CCDC178	3	-0.576	70.4	0.149	75.7	inactive
13	COL27A1	1	-0.282	76.3	-0.424	95.3	inactive
14	COL27A1	2	1.88	119	1.54	88.9	inactive
15	COL27A1	3	0.366	89.2	0.539	86.5	inactive
16	HIPK1	1	0.684	95.5	0.938	83.4	inactive
17	HIPK1	2	2.33	128	2.2	80.4	inactive
18	HIPK1	3	3.08	143	2.69	78.7	active
19	SLC6A5	1	0.156	85	0.358	86.4	inactive
20	SLC6A5	2	1.95	121	0.631	114	inactive
21	SLC6A5	3	-2.99	22.5	-2.88	53.6	inactive
22	TCEAL1	1	-0.0878	80.1	-0.21	94.6	inactive
23	TCEAL1	2	0.0904	83.7	-0.228	99.3	inactive
24	TCEAL1	3	-1.04	61.2	0.741	56.3	inactive
25	ADGRE3	1	-0.291	76.1	-0.28	91.5	inactive
26	ADGRE3	2	-0.128	79.3	0.114	86	inactive
27	ADGRE3	3	-0.0498	80.9	-0.494	103	inactive

The list goes on, starting with the last 5 of the part before.
no.	gene symbol	siRNA no.	total luciferase, z-score	total luciferase, % of control	luciferase per cell, z-score	viable cells, % of control	Call
23	TCEAL1	2	0.0904	83.7	-0.228	99.3	inactive
24	TCEAL1	3	-1.04	61.2	0.741	56.3	inactive
25	ADGRE3	1	-0.291	76.1	-0.28	91.5	inactive
26	ADGRE3	2	-0.128	79.3	0.114	86	inactive
27	ADGRE3	3	-0.0498	80.9	-0.494	103	inactive
28	HIF1AN	1	0.588	93.6	0.891	82.7	inactive
29	HIF1AN	2	0.238	86.6	0.166	92.7	inactive
30	HIF1AN	3	3.15	145	1.8	101	active
31	CT55P2	1	-0.556	70.8	1.01	60.7	inactive
32	CT55P2	2	0.994	102	1.1	85	inactive
33	CT55P2	3	1.97	121	1.43	92.8	inactive
34	CFLAR	1	-1.29	56.2	0.442	55.9	inactive
35	CFLAR	2	-0.589	70.2	-1.23	108	inactive
36	CFLAR	3	-0.8	66	-1.43	107	inactive
37	KLHL17	1	-1.2	58.1	-1.68	101	inactive
38	KLHL17	2	-0.229	77.3	-0.379	95.5	inactive
39	KLHL17	3	-0.903	63.9	-1.5	106	inactive
40	GLI2	1	1.96	121	1.37	94.1	inactive
41	GLI2	2	-1.37	54.7	1.35	42.8	inactive
42	GLI2	3	-0.46	72.7	-0.0643	82.7	inactive
43	DPY19L3	1	0.932	100	-0.258	120	inactive
44	DPY19L3	2	0.0412	82.7	-0.573	107	inactive
45	DPY19L3	3	2.13	124	1.63	90.5	inactive
46	DPY19L3	4	0.24	86.7	0.0465	95.7	inactive
47	DPY19L3	5	0.747	96.7	0.806	87.4	inactive
48	DPY19L3	6	0.678	95.4	0.265	99.4	inactive
49	IRF2BP2	1	0.831	98.4	1.35	77.2	inactive
50	IRF2BP2	2	0.473	91.3	0.324	93.7	inactive
51	IRF2BP2	3	2.18	125	1.6	91.9	inactive
52	CEPT1	1	-0.565	70.7	-0.413	88	inactive
53	CEPT1	2	0.838	98.5	0.0594	108	inactive
54	CEPT1	3	-0.889	64.2	-0.986	93	inactive
55	OR5W2	1	-0.134	79.2	-0.325	96.4	inactive
56	OR5W2	2	-2.15	39.1	-1.98	73.6	inactive
57	OR5W2	3	2.09	123	1.31	97.6	inactive
